Measured values from patent US20150031755.
Positions count from the first letter of the chain named. pIC50: −log10 of the molar value. For at least one entry, the source does not settle the construct or the ends of the probe. For part of these data: Negatives hold for the conditions tested. For part of these data: Where a protein sequence is shown, tags need not be part of it.

By UniProt entry, the sequences of proteins in these tests, tags left out. Residues count along the entry.
UniProt P10997, 34-70: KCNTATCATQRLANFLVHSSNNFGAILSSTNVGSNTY

What was measured:
[1] = target: human amylin (L-peptide) (Homo sapiens) (UniProt P10997); assay: SPR; conditions: L-RNA, L-dC at 41; no binding detected; synthetic protein; mirror-image nucleic acid; variant of 226-F2-001 (L)
[2] = target: T1, human alpha-CGRP (L-peptide) (Homo sapiens) (UniProt P06881); assay: activity in cells; conditions: L-RNA; cAMP inhibition, SK-N-MC cells, 1 nM CGRP, 37 C; synthetic protein; mirror-image nucleic acid
T1 sequence: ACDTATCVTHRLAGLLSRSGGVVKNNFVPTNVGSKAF

[3] = target: human amylin (L-peptide) (Homo sapiens) (UniProt P10997); assay: activity in cells; conditions: L-RNA, synthetic protein, mirror-image nucleic acid
[4] = target: T2, rat alpha-CGRP (L-peptide) (Rattus norvegicus) (UniProt P01256); assay: activity in cells; conditions: L-RNA, L-dC at 41, 5'-40 kDa PEG; cAMP inhibition, 1 nM rat CGRP, 37 C; synthetic protein; mirror-image nucleic acid; variant of 226-F2-001-D41
T2 sequence: T1 sequence with A1S, D3N, N25D, K35E

CCGUGCUGUCGGAGACUACUCGUCGAGUAGAAAUAGGUCCCCUCCCACGG [226-F2-001-D41]
binding result [1]: no binding

CCGUGCUGUCGGAGACUACUCGUCGAGUAGAAAUAGGUCCCCUCCCACGG [226-F2-001 (L)]
pIC50 [2]: 8.46

GGACUGAUGGCGCGGUCCUAUUACGCCGAUAGGGUGAGGGG [amylin-binding control Spiegelmer]
functional effect of the aptamer ([3]; 5'-40 kDa PEG, inhibits human amylin-induced cAMP in MCF-7 cells, dose not given here): active

CCGUGCUGUCGGAGACUACUCGUCGAGUAGAAAUAGGUCCCCUCCCACGG [NOX-L41 (226-F2-001-D41-5'-40kDa-PEG)]
pIC50 ([3]; L-dC at 41, 5'-40 kDa PEG, no inhibition of human amylin-induced cAMP up to 1 uM, MCF-7 cells, variant of 226-F2-001-D41): < 6.00 | pIC50 [4]: 8.44

CGUGCUGUCGGAGACUACUCGUCGAGUAGAAAUAGGUCCCCUCCCACG [212-G1-001 (L)]
pIC50 [2]: 8.06
